Reference: PubChem BioAssay AID504786 (Drosophila RNAi Screening Center, 2011)
Purpose: 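Knock-downs reducing HIF reporter induction by the iron chelator DFO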 (primary screen). Cell system: Drosophila S2 cells with a stable HIF luciferase reporter. Knock-down reagent: long dsRNA against Drosophila genes, about 0.2 µg dsRNA per well of a 384-well plate. Duration: three days of knock-down, then 20 h of DFO before reading. Challenge: desferrioxamine (DFO) at 100 µM, an iron chelator that mimics hypoxia, for 20 h. Measurement: 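Firefly luciferase driven by the mouse ldh-a hypoxia-response element, measured after 20 h of 100 µM DFO; z-scores per plate, higher means more signal lost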. Scale: z-score: higher = stronger loss of HIF reporter signal.
The deposit covers about 21,000 reagents; shown is a random part of those that have a named target and a result. 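Primary screen; positive scores mean lost reporter signal, so the sign may be inverted from the usual convention.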 The numbers tell different reagents against one gene apart. Names joined by + are all predicted targets of the reagent. Further read-outs or replicates are left out here.

Target gene	reagent	z-score, replicate 1	z-score, replicate 2
yin	1	-0.3	-0.4
CG3776	1	-0.2	0.1
Deaf1	1	-0.3	-0.3
Six4	1	-0.3	-0.3
Arl5	1	-0.1	-0.2
bib	1	-0.1	-0.9
Nacalpha	1	0.7	0.7
MFS16	1	-0.1	-0.3
CG13085	1	-0.3	-0.5
Ptr	1	-0.4	-0.4
MESK2 + CG10494	1	-0.3	-0.6
CG5877	1	-0.3	-0.5
Ppat-Dpck	1	-0.1	-0.5
S-Lap8	1	-0.3	-0.4
CG17193	1	-0.1	0
CG13894	1	1.5	0.2
CG33627	1	0	0
CG11842	1	-0.4	-0.1
CG33124	1	-0.2	-0.6
CG10651	1	-0.1	-0.1
fz3	1	-0.3	-0.2
pps	1	0.2	0
CG14990	1	-0.3	-0.5
Prosap	1	-0.4	-0.4
Prosap	2	-0.3	-0.8
CG5435	1	-0.3	-0.1
Rsf1	1	0.1	-0.7
CG7218	1	-0.3	-0.1
CG14817	1	0.9	0.7
HHEX	1	0.5	0.1
Cul1	1	-0.6	-1
Cyt-c1	1	0.5	1.6
CG8520	1	-0.4	-0.6
Srp68	1	-0.6	-1.2
Or85c	1	-0.2	-0.6
tsu	1	0.8	0.3
Efhc1.1	1	-0.2	-0.7
CG1137	1	-0.3	-0.2
CG31464	1	-0.1	-0.2
Poxm	1	-0.4	-0.5
CG3634	1	0	-0.1
CG15528	1	-0.1	0.1
Arp8	1	-0.3	-0.6
CG6295	1	0	-0.2
CG32576	1	-0.8	-0.7
CG30428	1	-0.2	-0.2
CG3345	1	-0.2	0
tsh	1	-0.2	-0.8
Cyp6t3	1	-0.3	0.2
ND-39	1	-0.1	-0.5
CG9445	1	-0.3	-0.1
GstE14	1	-0.4	-0.2
CG17036	1	-0.3	0
Spn85F	1	0.2	-0.1
CG18641	1	-0.3	-0.5
Liprin-gamma	1	-1	-0.4
dgt3	1	0	-0.1
TAF1C-like	1	-0.3	-0.5
Epg5	1	-0.4	0
pira	1	-0.4	-0.8
CG14644	1	-0.3	-0.2
rtet	1	-0.2	-0.2
BomBc2	1	-0.3	-0.4
CG31882	1	-0.7	-0.4
RabGGTb	1	-0.4	-0.4
CG5122	1	-0.4	-0.1
eIF2gamma	1	4	4.1
eIF2gamma	2	0	0
fd3F (retired record)	1	-0.3	3.5
CG33775	1	-0.2	-0.2
CG10417	1	-0.2	0.1
Klp54D	1	0	0
ppk28	1	-0.2	-0.5
CG11865	1	2	-0.2
IntS14	1	-0.3	-0.4
Vha16-3	1	-0.3	-0.5
fzo	1	-0.2	-0.2
Pepck1	1	-0.3	-0.4
Nt5c	1	-0.4	-0.3
NTPase	1	-0.4	-0.6
Or45a	1	-0.3	-0.6
mRpS21	1	0.4	0.2
Nplp4	1	0.1	-0.1

7 entries from above, reformatted:
| Target gene | reagent | z-score, replicate 1 | z-score, replicate 2 |
| --- | --- | --- | --- |
| CG3776 | 1 | -0.2 | 0.1 |
| Deaf1 | 1 | -0.3 | -0.3 |
| Six4 | 1 | -0.3 | -0.3 |
| Arl5 | 1 | -0.1 | -0.2 |
| bib | 1 | -0.1 | -0.9 |
| Nacalpha | 1 | 0.7 | 0.7 |
| MFS16 | 1 | -0.1 | -0.3 |
